Measurements from PubChem BioAssay AID310 (DTP/NCI, 2004).
The list does not hold the whole screen: it covers a few groups of compounds. Other doses and runs of a compound may be missing. T/C: endpoint of the treated group in % of that of the vehicle group. Some T/C values are marked as having no survivor count here; that says nothing about deaths at the dose. Schedules are NCI's codes, read here as Q, the interval in days (D) or hours (H), X, the number of doses.

Tested on: C3AKF1 mice, osteogenic sarcoma HE10734 s.c., tumor weight T/C
Assay: NCI In Vivo Anticancer Drug Screen. Data for tumor model Osteogenic Sarcoma HE 10734 (subcutaneous) in C3AKF1 (CHKRF1) mice
Conditions: T/C endpoint: mean tumor weight, schedule: Q01DX010 (ip), evaluation day not shown, higher T/C = larger tumour
Procedure: The antitumor activity of compounds was measured in mice bearing transplantable tumors. Survival or tumor size were measured and the results are expressed as the measurement made in the treated group (T) divided by the measurement made in the vehicle treated control group (C). The tumor model used in this assay is Osteogenic Sarcoma HE 10734 (subcutaneous) in C3AKF1 (CHKRF1) mice

[1] = dose: 2.5 mg/kg/injection, vehicle: saline

ClCCN(CCCl)Cc1nc2ccc(Cl)cc2[nH]1
T/C (dose: 5.0 mg/kg/injection, vehicle: carboxymethylcellulose (CMC)): 73 % of control [survivor count not shown] | T/C (dose: 10.0 mg/kg/injection, vehicle: carboxymethylcellulose (CMC)): 86 % of control [survivor count not shown] | T/C (dose: 20.0 mg/kg/injection, vehicle: carboxymethylcellulose (CMC)): 89 % of control [survivor count not shown]

O=C(O)CCc1ccc(CN(CCCl)CCCl)cc1
T/C (dose: 1.25 mg/kg/injection, vehicle: saline): 99 % of control [survivor count not shown] | T/C [1]: 59 % of control [survivor count not shown]

Oc1ccc(Cl)cc1CN(CCCl)CCCl
T/C (dose: 6.0 mg/kg/injection, vehicle: saline): 63 % of control [survivor count not shown] | T/C (dose: 12.0 mg/kg/injection, vehicle: saline): 42 % of control [survivor count not shown]

COc1cccc(N(CCCl)CCCl)c1OC
T/C (dose: 7.5 mg/kg/injection, vehicle: carboxymethylcellulose (CMC)): 81 % of control [survivor count not shown] | T/C (dose: 15.0 mg/kg/injection, vehicle: carboxymethylcellulose (CMC)): 177 % of control [survivor count not shown] | T/C (dose: 30.0 mg/kg/injection, vehicle: carboxymethylcellulose (CMC)): 117 % of control [survivor count not shown] | T/C (dose: 60.0 mg/kg/injection, vehicle: carboxymethylcellulose (CMC)): 115 % of control [survivor count not shown]

O[C@@H](CNCCCl)[C@@H](O)CNCCCl
T/C [1]: 118 % of control [survivor count not shown] | T/C (dose: 5.0 mg/kg/injection, vehicle: saline): 66 % of control [survivor count not shown] | T/C (dose: 10.0 mg/kg/injection, vehicle: saline): 89 % of control [survivor count not shown] | T/C (dose: 20.0 mg/kg/injection, vehicle: saline): 66 % of control [survivor count not shown]

O=C(O)C(=O)Cc1ccc(N(CCCl)CCCl)cc1
T/C (dose: 7.0 mg/kg/injection, vehicle: saline): 68 % of control [survivor count not shown] | T/C (dose: 15.0 mg/kg/injection, vehicle: saline): 22 % of control [survivor count not shown]

ClCCN(CCCl)Cc1nc2cc(Cl)c(Cl)cc2[nH]1
T/C (dose: 12.5 mg/kg/injection, vehicle: carboxymethylcellulose (CMC)): 70 % of control [survivor count not shown] | T/C (dose: 25.0 mg/kg/injection, vehicle: carboxymethylcellulose (CMC)): 68 % of control [survivor count not shown] | T/C (dose: 50.0 mg/kg/injection, vehicle: carboxymethylcellulose (CMC)): 95 % of control [survivor count not shown] | T/C (dose: 100.0 mg/kg/injection, vehicle: carboxymethylcellulose (CMC)): 57 % of control [survivor count not shown]
